Negatives hold for the conditions tested. Protein sequences can lack the tags named with them.
Target: T1, p38γ (MAPK12) (Homo sapiens) (UniProt P53778)
T1 sequence (limits assumed): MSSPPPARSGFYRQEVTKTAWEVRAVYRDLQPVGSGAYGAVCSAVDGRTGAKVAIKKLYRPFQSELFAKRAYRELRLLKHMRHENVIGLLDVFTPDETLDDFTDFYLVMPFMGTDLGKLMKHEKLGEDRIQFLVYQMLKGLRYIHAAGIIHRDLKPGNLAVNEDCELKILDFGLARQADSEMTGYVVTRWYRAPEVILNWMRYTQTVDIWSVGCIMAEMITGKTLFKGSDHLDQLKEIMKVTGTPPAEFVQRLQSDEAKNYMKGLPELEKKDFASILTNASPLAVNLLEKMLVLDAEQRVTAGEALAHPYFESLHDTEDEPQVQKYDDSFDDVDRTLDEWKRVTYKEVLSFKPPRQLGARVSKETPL
Experiment: inhibition of the protein
Settings: irrelevant control oligonucleotide used as reference in ADP-Glo assay; purified recombinant protein; protein details: human recombinant, Promega; dose not given here

Sequence	functional effect of the aptamer
GGGAGACAAGAAUAAACGCUCAAGAGAGUGGUAAAGCUGUCGUUGGUCUUCCAUUAGAGCCCGUUCGACAGGAGGCUCACAACAGGC [IRRE1]	not active
GGGAGACAAGAAUAAACGCUCAAGCUUGAGGGUAGCUUUAGUUGGUCUCCGACAGAGCCUCUGUUCGACAGGAGGCUCACAACAGGC [IRRE2]	not active

From patent publication US20200399643
